Laboratory results: the supplement of paper PMC12823440, “Inhibitors supercharge kinase turnover through native proteolytic circuits” (Nature, 2025)
Structures can show the parent of a compound that is named as a salt. Some of the results follow. The calls rarely recur for the same compound in another form.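 Kinases, fused to nanoluciferase, were expressed in K562 cells; luminescence was measured every 4 h from 2 to 18 h as percent of control (DMSO = 100%, positive control = 0%). A time point is decreased if signal falls significantly (2 sigma). Hits were called by the authors by a rule that is not shown; the count of time points alone does not decide it.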

The chains behind the UniProt entries cited, without tags or fusion partners. Where a name states a change or a piece, a line headed by the entry shows the natural chain unless it says otherwise.
UniProt O15530: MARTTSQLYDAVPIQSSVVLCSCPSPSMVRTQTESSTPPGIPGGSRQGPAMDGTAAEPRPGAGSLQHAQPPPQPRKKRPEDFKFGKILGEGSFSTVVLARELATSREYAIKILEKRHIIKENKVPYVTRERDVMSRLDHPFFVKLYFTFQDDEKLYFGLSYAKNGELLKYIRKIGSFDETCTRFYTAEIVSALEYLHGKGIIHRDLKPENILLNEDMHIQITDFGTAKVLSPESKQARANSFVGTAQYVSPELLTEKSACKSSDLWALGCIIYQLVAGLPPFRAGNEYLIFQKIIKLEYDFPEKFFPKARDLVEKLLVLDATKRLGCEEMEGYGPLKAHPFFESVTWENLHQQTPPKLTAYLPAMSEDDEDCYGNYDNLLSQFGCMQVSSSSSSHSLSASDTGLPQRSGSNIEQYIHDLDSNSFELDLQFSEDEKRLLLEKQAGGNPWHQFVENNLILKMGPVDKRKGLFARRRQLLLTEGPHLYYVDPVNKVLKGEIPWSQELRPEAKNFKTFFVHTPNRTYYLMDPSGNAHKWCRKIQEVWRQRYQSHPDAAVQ
UniProt P53350, whole entry: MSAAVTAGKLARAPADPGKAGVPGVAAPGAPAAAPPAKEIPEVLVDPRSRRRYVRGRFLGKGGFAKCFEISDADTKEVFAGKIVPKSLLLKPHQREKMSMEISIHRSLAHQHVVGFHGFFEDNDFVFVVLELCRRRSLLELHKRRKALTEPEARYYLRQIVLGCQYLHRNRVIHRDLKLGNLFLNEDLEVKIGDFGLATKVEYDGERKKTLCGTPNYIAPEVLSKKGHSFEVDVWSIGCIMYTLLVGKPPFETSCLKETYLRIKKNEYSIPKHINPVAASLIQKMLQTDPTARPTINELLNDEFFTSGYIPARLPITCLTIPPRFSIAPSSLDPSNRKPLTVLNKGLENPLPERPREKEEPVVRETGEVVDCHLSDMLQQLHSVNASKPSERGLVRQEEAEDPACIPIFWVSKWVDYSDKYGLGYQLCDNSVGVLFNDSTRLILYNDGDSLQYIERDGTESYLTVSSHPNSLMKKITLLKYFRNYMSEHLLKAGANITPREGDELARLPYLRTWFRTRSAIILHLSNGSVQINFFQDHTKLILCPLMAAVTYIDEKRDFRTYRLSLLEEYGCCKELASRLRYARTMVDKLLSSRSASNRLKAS
UniProt Q13131: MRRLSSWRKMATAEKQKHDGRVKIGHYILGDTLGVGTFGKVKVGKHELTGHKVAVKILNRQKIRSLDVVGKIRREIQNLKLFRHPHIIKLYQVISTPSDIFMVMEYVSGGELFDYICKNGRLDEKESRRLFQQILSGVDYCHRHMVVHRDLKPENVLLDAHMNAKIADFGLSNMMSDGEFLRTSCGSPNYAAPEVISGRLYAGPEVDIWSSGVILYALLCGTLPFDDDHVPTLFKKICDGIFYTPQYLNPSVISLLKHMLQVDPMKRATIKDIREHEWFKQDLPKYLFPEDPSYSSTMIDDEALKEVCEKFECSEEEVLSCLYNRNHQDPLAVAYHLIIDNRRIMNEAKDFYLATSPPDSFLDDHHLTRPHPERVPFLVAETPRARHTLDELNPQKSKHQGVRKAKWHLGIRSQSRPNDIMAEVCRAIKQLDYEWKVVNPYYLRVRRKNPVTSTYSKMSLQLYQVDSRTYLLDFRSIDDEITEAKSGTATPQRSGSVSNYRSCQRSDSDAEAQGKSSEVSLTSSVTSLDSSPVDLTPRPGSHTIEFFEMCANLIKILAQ
UniProt P07949, whole entry, looked up: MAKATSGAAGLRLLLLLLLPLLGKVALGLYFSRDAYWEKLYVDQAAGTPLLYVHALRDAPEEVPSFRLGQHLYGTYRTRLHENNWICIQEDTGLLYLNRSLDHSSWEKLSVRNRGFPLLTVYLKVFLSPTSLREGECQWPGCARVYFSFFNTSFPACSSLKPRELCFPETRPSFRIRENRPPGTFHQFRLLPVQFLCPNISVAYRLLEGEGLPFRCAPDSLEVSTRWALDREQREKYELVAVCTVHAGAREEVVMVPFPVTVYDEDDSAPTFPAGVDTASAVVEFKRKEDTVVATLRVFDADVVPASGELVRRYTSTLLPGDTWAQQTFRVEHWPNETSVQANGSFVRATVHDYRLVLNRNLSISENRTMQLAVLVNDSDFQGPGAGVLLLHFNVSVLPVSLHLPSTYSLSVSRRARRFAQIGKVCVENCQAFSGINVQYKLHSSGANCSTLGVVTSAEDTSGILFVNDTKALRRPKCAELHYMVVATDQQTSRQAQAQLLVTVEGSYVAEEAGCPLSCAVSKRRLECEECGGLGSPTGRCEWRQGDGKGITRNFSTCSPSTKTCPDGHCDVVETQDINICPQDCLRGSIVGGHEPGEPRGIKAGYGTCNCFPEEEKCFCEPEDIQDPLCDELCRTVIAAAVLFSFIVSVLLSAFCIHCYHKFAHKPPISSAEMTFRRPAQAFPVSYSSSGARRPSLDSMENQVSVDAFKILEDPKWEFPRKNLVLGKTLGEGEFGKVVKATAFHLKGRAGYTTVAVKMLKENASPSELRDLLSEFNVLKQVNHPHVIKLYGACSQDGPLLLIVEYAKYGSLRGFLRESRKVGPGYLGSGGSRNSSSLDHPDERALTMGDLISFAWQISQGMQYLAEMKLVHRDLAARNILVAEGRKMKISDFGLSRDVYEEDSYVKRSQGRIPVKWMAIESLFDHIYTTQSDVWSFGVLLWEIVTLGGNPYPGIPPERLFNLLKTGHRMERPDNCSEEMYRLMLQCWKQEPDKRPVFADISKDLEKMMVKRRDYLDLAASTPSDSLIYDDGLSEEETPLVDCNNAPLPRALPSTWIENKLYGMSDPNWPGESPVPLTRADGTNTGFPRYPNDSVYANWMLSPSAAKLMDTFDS
UniProt P07949, whole entry M918T, looked up: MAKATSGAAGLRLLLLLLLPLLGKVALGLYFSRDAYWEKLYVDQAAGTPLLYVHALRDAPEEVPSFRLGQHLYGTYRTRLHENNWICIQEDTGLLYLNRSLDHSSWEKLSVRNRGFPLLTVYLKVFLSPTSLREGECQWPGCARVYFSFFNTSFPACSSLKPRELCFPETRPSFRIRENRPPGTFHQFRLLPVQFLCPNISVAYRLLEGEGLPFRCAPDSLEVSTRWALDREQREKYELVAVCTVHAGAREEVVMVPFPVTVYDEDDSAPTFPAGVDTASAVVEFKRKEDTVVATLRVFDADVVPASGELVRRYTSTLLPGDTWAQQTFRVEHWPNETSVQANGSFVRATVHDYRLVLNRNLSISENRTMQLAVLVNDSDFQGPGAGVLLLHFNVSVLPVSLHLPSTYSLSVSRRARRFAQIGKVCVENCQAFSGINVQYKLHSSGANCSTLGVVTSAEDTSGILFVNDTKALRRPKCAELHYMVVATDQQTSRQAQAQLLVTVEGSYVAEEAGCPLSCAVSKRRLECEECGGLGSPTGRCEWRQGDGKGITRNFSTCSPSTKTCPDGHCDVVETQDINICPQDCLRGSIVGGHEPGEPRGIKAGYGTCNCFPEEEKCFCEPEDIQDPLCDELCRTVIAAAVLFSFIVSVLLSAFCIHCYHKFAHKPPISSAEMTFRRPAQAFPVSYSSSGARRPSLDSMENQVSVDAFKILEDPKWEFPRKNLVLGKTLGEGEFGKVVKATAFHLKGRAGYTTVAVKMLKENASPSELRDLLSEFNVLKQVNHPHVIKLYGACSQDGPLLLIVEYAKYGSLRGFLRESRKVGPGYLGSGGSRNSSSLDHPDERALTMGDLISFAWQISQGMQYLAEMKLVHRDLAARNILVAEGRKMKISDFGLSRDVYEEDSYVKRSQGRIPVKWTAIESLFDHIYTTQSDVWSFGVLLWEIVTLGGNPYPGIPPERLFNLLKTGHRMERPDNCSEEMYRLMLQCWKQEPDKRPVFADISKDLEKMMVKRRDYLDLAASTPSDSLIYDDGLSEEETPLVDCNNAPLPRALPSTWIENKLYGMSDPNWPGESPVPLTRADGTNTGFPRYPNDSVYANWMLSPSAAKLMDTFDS
UniProt Q9BRS2: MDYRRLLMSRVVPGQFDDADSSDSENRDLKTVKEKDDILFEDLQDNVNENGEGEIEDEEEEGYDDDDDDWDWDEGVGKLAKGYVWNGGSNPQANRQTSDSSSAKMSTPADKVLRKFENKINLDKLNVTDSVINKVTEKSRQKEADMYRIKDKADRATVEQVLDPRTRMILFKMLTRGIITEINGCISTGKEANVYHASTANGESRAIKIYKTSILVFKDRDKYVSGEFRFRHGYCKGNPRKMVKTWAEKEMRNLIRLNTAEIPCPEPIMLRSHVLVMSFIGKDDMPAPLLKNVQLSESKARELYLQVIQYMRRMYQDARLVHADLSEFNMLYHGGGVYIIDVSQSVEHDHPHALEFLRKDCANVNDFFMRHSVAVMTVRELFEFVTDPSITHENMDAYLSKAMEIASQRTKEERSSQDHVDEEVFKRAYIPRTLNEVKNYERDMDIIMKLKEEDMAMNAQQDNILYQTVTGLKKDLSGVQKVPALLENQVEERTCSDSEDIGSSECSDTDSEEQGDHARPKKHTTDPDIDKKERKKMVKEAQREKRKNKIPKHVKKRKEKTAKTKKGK
UniProt Q01974, whole entry: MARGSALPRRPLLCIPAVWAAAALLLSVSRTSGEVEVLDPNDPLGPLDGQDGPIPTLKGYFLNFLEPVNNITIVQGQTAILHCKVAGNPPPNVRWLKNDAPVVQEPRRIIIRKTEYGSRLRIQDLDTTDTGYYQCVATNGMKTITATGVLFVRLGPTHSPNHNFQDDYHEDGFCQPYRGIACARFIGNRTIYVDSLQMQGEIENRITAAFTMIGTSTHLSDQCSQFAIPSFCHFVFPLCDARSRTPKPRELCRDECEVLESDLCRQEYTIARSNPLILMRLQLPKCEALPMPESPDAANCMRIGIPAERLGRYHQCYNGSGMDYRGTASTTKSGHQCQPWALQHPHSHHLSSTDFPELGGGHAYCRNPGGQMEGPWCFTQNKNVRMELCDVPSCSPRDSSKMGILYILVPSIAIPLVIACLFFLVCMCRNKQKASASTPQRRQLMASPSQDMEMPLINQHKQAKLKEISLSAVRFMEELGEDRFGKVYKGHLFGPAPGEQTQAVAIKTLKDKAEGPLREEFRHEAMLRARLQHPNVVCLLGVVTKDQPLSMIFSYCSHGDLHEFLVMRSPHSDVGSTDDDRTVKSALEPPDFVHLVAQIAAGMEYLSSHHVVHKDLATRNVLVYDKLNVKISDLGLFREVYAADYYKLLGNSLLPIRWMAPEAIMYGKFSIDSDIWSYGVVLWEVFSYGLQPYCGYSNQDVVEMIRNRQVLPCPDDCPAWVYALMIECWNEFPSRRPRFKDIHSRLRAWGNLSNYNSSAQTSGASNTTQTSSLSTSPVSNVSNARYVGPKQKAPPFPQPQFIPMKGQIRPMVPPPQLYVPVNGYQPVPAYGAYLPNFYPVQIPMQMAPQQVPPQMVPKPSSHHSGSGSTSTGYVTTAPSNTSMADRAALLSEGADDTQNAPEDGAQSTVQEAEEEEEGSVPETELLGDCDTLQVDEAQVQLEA
UniProt Q15418, whole entry: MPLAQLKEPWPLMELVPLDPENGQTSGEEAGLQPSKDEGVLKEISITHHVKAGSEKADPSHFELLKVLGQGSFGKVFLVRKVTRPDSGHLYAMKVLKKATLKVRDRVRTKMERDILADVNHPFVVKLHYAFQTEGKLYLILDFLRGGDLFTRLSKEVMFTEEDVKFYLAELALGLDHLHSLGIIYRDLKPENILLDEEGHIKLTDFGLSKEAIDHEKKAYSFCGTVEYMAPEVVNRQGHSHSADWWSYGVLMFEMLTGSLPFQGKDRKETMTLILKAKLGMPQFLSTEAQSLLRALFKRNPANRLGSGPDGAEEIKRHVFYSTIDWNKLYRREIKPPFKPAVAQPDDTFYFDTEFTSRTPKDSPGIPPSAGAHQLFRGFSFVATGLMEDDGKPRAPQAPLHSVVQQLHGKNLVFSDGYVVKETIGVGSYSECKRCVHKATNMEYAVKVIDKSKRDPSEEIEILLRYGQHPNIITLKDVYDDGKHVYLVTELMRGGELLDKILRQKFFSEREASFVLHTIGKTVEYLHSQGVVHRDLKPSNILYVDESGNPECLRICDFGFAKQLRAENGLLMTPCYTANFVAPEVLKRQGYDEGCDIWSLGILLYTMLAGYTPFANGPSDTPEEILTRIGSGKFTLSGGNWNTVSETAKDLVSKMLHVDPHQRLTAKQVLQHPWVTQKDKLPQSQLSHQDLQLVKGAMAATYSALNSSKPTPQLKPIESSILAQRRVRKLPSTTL
UniProt Q9NYA1, whole entry: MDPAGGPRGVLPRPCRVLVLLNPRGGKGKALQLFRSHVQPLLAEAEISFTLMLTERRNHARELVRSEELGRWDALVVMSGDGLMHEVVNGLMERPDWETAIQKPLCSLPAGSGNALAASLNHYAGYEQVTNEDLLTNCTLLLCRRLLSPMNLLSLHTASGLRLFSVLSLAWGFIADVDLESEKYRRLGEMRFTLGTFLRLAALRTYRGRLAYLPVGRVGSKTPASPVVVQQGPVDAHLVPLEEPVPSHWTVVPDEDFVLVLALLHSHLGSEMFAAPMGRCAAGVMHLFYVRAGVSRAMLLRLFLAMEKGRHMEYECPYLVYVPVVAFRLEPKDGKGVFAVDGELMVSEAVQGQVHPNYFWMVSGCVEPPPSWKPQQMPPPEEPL

What was measured:
Test in all cases: kinase-Nluc reporter destabilization hit call (1 = scored as downregulated) (binary); higher = compound decreases kinase abundance
Details in all cases: K562, 2-18 h
PDPK1 = PDPK1 (UniProt O15530)
PIK4CA = PIK4CA (UniProt P42356)
PIK4CB = PIK4CB (UniProt Q9UBF8)
PLK1 = PLK1 (UniProt P53350)
PRKAA1 = PRKAA1 (UniProt Q13131)
PRKCA = PRKCA (UniProt P17252)
PTK2 = PTK2 (UniProt Q05397)
PTK2B = PTK2B (UniProt Q14289)
RAF1 = RAF1 (UniProt P04049)
[1] = biological target: RAF1_S257L (clone: RAF1_mut) (UniProt P04049)
RET = RET (UniProt P07949)
[2] = biological target: RET_M918T (clone: RET_mut) (UniProt P07949)
RIOK1 = RIOK1 (UniProt Q9BRS2)
RIPK1 = RIPK1 (UniProt Q13546)
RIPK2 = RIPK2 (UniProt O43353)
ROR2 = ROR2 (UniProt Q01974)
RPS6KA1 = RPS6KA1 (UniProt Q15418)
SPHK1 = SPHK1 (UniProt Q9NYA1)
SRC = SRC (UniProt P12931)
STK24 = STK24 (UniProt Q9Y6E0)

Measured: kinase-Nluc reporter destabilization hit call

Nc1nc(Nc2ccc(S(N)(=O)=O)cc2)nn1C(=O)c1c(F)cccc1F
inactive: PDPK1; 2.5 µM 0 | PIK4CA; 2.5 µM 0 | PIK4CB; 2.5 µM 0 | PLK1; 2.5 µM 0 | PRKAA1; 2.5 µM 0 | PRKCA; 2.5 µM 0 | PTK2; 2.5 µM 0 | PTK2B; 2.5 µM 0 | RAF1; 2.5 µM 0 | [1]; 2.5 µM 0 | RET; 2.5 µM 0 | [2]; 2.5 µM 0 | RIOK1; 2.5 µM 0 | RIPK1; 2.5 µM 0 | RIPK2; 2.5 µM 0 | ROR2; 2.5 µM 0 | RPS6KA1; 2.5 µM 0 | SPHK1; 2.5 µM 0 | SRC; 2.5 µM 0 | STK24; 2.5 µM 0

Cc1ccc(Nc2nccc(N(C)c3ccc4c(C)n(C)nc4c3)n2)cc1S(N)(=O)=O [Pazopanib (Hydrochloride)]
inactive: PDPK1; 10 µM 0 | PIK4CA; 10 µM 0 | PIK4CB; 10 µM 0 | PLK1; 10 µM 0 | PRKAA1; 10 µM 0 | PRKCA; 10 µM 0 | PTK2; 10 µM 0 | PTK2B; 10 µM 0 | RAF1; 10 µM 0 | [1]; 10 µM 0 | RET; 10 µM 0 | [2]; 10 µM 0 | RIOK1; 10 µM 0 | RIPK1; 10 µM 0 | RIPK2; 10 µM 0 | ROR2; 10 µM 0 | RPS6KA1; 10 µM 0 | SPHK1; 10 µM 0 | SRC; 10 µM 0 | STK24; 10 µM 0

Cc1ccc(Nc2nccc(N(C)c3ccc4c(C)n(C)nc4c3)n2)cc1S(N)(=O)=O [Pazopanib]
inactive: PDPK1; 10 µM 0 | PIK4CA; 10 µM 0 | PIK4CB; 10 µM 0 | PLK1; 10 µM 0 | PRKAA1; 10 µM 0 | PRKCA; 10 µM 0 | PTK2; 10 µM 0 | PTK2B; 10 µM 0 | RAF1; 10 µM 0 | [1]; 10 µM 0 | RET; 10 µM 0 | [2]; 10 µM 0 | RIOK1; 10 µM 0 | RIPK1; 10 µM 0 | RIPK2; 10 µM 0 | ROR2; 10 µM 0 | RPS6KA1; 10 µM 0 | SPHK1; 10 µM 0 | SRC; 10 µM 0 | STK24; 10 µM 0

CCOc1nc(NC(=O)Cc2cc(OC)ccc2OC)cc(N)c1C#N [JNK Inhibitor VIII]
inactive: PDPK1; 10 µM 0 | PIK4CA; 10 µM 0 | PIK4CB; 10 µM 0 | PLK1; 10 µM 0 | PRKAA1; 10 µM 0 | PRKCA; 10 µM 0 | PTK2; 10 µM 0 | PTK2B; 10 µM 0 | RAF1; 10 µM 0 | [1]; 10 µM 0 | RET; 10 µM 0 | [2]; 10 µM 0 | RIOK1; 10 µM 0 | RIPK1; 10 µM 0 | RIPK2; 10 µM 0 | ROR2; 10 µM 0 | RPS6KA1; 10 µM 0 | SPHK1; 10 µM 0 | SRC; 10 µM 0 | STK24; 10 µM 0

NC(=O)c1c(OCc2c(F)cc(Br)cc2F)nsc1NC(=O)NCCCCN1CCCC1
inactive: PDPK1; 2.5 µM 0 | PIK4CA; 2.5 µM 0 | PIK4CB; 2.5 µM 0 | PLK1; 2.5 µM 0 | PRKAA1; 2.5 µM 0 | PRKCA; 2.5 µM 0 | PTK2; 2.5 µM 0 | PTK2B; 2.5 µM 0 | RAF1; 2.5 µM 0 | [1]; 2.5 µM 0 | RIOK1; 2.5 µM 0 | RIPK1; 2.5 µM 0 | RIPK2; 2.5 µM 0 | ROR2; 2.5 µM 0 | RPS6KA1; 2.5 µM 0 | SPHK1; 2.5 µM 0 | SRC; 2.5 µM 0 | STK24; 2.5 µM 0

CC1(C)CNc2cc(NC(=O)c3cccnc3NCc3ccncc3)ccc21 [Motesanib (Diphosphate)]
inactive: PDPK1; 2.5 µM 0 | PIK4CA; 2.5 µM 0 | PIK4CB; 2.5 µM 0 | PLK1; 2.5 µM 0 | PRKAA1; 2.5 µM 0 | PRKCA; 2.5 µM 0 | PTK2; 2.5 µM 0 | PTK2B; 2.5 µM 0 | RAF1; 2.5 µM 0 | [1]; 2.5 µM 0 | RIOK1; 2.5 µM 0 | RIPK1; 2.5 µM 0 | RIPK2; 2.5 µM 0 | ROR2; 2.5 µM 0 | RPS6KA1; 2.5 µM 0 | SPHK1; 2.5 µM 0 | SRC; 2.5 µM 0 | STK24; 2.5 µM 0

CC(C)n1nc(-c2cc3cc(O)ccc3[nH]2)c2c(N)ncnc21 [Torkinib]
inactive: PDPK1; 2.5 µM 0 | PIK4CA; 2.5 µM 0 | PIK4CB; 2.5 µM 0 | PLK1; 2.5 µM 0 | PRKAA1; 2.5 µM 0 | PRKCA; 2.5 µM 0 | PTK2; 2.5 µM 0 | PTK2B; 2.5 µM 0 | RAF1; 2.5 µM 0 | [1]; 2.5 µM 0 | RET; 2.5 µM 0 | [2]; 2.5 µM 0 | RIOK1; 2.5 µM 0 | RIPK1; 2.5 µM 0 | RIPK2; 2.5 µM 0 | ROR2; 2.5 µM 0 | RPS6KA1; 2.5 µM 0 | SPHK1; 2.5 µM 0 | STK24; 2.5 µM 0

O=C(O)c1ccc(Nc2ncc3c(n2)-c2ccc(Cl)cc2C(c2c(F)cccc2F)=NC3)cc1
inactive: PDPK1; 10 µM 0 | PIK4CA; 10 µM 0 | PIK4CB; 10 µM 0 | PLK1; 10 µM 0 | PRKAA1; 10 µM 0 | PRKCA; 10 µM 0 | PTK2; 10 µM 0 | PTK2B; 10 µM 0 | RAF1; 10 µM 0 | [1]; 10 µM 0 | RET; 10 µM 0 | [2]; 10 µM 0 | RIOK1; 10 µM 0 | RIPK1; 10 µM 0 | RIPK2; 10 µM 0 | ROR2; 10 µM 0 | SPHK1; 10 µM 0 | STK24; 10 µM 0

Cc1cc(Nc2cc(N3CCN(C)CC3)nc(/C=C/c3ccccc3)n2)n[nH]1
inactive: PDPK1; 2.5 µM 0 | PIK4CA; 2.5 µM 0 | PIK4CB; 2.5 µM 0 | PLK1; 2.5 µM 0 | PRKAA1; 2.5 µM 0 | PRKCA; 2.5 µM 0 | PTK2B; 2.5 µM 0 | RAF1; 2.5 µM 0 | [1]; 2.5 µM 0 | RET; 2.5 µM 0 | [2]; 2.5 µM 0 | RIOK1; 2.5 µM 0 | RIPK1; 2.5 µM 0 | RIPK2; 2.5 µM 0 | ROR2; 2.5 µM 0 | RPS6KA1; 2.5 µM 0 | SPHK1; 2.5 µM 0 | SRC; 2.5 µM 0 | STK24; 2.5 µM 0
